Measured values from PMC9457828, “Chemical Markers and Pharmacological Characters of Pelargonium graveolens Essential Oil from Palestine” (Molecules, 2022).
Values after ≈ are worked out from the molar mass of the structure shown.

Experiments:
Assay type in all cases: cell-based
[1] = test system: Staphylococcus aureus (2592); experiment: Broth microdilution, S. aureus
[2] = test system: Escherichia coli (25,922); experiment: Broth microdilution, E. coli
[3] = test system: Pseudomonas aeruginosa (9027); experiment: Broth microdilution, P. aeruginosa
HeLa = experiment: cells; details: Homo sapiens, 24 h, MTS
Description: (§1) Human cervical (HeLa), breast (MCF-7), and liver (Hep3B) cancer cell lines were cultured in RPMI-1640 medium (Sigma-Norwich, Norfolk, UK). Then each kind of the tested cells was treated with 10% fetal bovine serum mixed with 1% penicillin/streptomycin antibiotics (BI, Ghaziabad, UP, India), and 1% L-glutamine (Sigma-Norwich, Norfolk, UK). The cancer cells were cultured at 37 °C in a humidified atmosphere with 5% CO2 and then planted in a 96-well plate at 2.6 × 10^4 cells/well. After 2 days, the EO with different concentrations (10, 30, 60, 120, and 500 µg/mL) was applied to the cells for 24 h. According to the manufacturer’s guidelines, cell viability was estimated by the CellTilter 96® Aqueous One Solution Cell Proliferation (MTS) method. In the end, 100 μL of media and 20 μL of MTS solution were added to each well, and the well plates were incubated at 37 °C for 2 h. The absorbance was measured at 490 nm.

MCF-7 = experiment: cells; details: Homo sapiens, MCF7; 24 h, MTS
Description: as §1

| MIC [1] [µg/mL] | MIC [2] [µg/mL] | MIC [3] [µg/mL] | IC50 (HeLa) [µg/mL] | IC50 (MCF-7) [µg/mL] | Compound |
| --- | --- | --- | --- | --- | --- |
| 0.78 ± 0.01 (≈ 2.35 µM) | 0.78 ± 0.01 (≈ 2.35 µM) | 3.12 ± 0.31 (≈ 9.42 µM) |  |  | O=C(O)c1cn(C2CC2)c2cc(N3CCNCC3)c(F)cc2c1=O [Ciprofloxacin] |
|  |  |  | 0.84 ± 1.1 (≈ 1.55 µM) | 0.37 ± 0.22 (≈ 0.681 µM) | COc1cccc2c1C(=O)c1c(O)c3c(c(O)c1C2=O)C[C@@](O)(C(=O)CO)C[C@@H]3O[C@H]1C[C@H](N)[C@H](O)[C@H](C)O1 [Doxorubicin] |
